Publication PMC11704088
These are yes or no findings as the source states them, for the method shown. In cells and extracts the contact can be indirect. Some binding calls cover weakened binding; strength is not graded here.

Amino acid sequences for entries named in this document (tags omitted).
UniProt P17931: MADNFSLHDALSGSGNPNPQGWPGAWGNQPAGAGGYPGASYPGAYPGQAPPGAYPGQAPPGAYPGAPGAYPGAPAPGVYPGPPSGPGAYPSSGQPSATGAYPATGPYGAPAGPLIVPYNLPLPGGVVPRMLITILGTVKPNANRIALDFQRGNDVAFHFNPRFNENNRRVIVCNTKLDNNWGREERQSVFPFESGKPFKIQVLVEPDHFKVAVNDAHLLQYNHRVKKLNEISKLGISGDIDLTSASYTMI

Biological target: galectin-3 (human (endogenous in human brain vascular smooth muscle cells)) (UniProt P17931)
Experiment: co-IP; lysate of VSMCs with protease inhibitors incubated with anti-galectin-3 antibody or IgG and magnetic beads at 4 °C for 12 h; beads washed with lysis buffer; eluate analysed by Western blot; for TLR4, cells transfected with mimic-NC or tRF-AspGTC mimic

binding: binds
B1: tripartite motif 29 (protein, UniProt Q14134 1-588)
chain: MEAADASRSNGSSPEARDARSPSGPSGSLENGTKADGKDAKTTNGHGGEAAEGKSLGSALKPGEGRSALFAGNEWRRPIIQFVESGDDKNSNYFSMDSMEGKRSPYAGLQLGAAKKPPVTFAEKGELRKSIFSESRKPTVSIMEPGETRRNSYPRADTGLFSRSKSGSEEVLCDSCIGNKQKAVKSCLVCQASFCELHLKPHLEGAAFRDHQLLEPIRDFEARKCPVHGKTMELFCQTDQTCICYLCMFQEHKNHSTVTVEEAKAEKETELSLQKEQLQLKIIEIEDEAEKWQKEKDRIKSFTTNEKAILEQNFRDLVRDLEKQKEEVRAALEQREQDAVDQVKVIMDALDERAKVLHEDKQTREQLHSISDSVLFLQEFGALMSNYSLPPPLPTYHVLLEGEGLGQSLGNFKDDLLNVCMRHVEKMCKADLSRNFIERNHMENGGDHRYVNNYTNSFGGEWSAPDTMKRYSMYLTPKGGVRTSYQPSSPGRFTKETTQKNFNNLYGTKGNYTSRVWEYSSSIQNSDNDLPVVQGSSSFSLKGYPSLMRSQSPKAQPQTWKSGKQTMLSHYRPFYVNKGNGIGSNEAP
